{"sequences": {"note": "Sequences of proteins named here, by UniProt entry; tags and fusion partners are left off. A change or cut given only in a name is not applied to a line headed by its entry.", "UniProt Q9XSM3": "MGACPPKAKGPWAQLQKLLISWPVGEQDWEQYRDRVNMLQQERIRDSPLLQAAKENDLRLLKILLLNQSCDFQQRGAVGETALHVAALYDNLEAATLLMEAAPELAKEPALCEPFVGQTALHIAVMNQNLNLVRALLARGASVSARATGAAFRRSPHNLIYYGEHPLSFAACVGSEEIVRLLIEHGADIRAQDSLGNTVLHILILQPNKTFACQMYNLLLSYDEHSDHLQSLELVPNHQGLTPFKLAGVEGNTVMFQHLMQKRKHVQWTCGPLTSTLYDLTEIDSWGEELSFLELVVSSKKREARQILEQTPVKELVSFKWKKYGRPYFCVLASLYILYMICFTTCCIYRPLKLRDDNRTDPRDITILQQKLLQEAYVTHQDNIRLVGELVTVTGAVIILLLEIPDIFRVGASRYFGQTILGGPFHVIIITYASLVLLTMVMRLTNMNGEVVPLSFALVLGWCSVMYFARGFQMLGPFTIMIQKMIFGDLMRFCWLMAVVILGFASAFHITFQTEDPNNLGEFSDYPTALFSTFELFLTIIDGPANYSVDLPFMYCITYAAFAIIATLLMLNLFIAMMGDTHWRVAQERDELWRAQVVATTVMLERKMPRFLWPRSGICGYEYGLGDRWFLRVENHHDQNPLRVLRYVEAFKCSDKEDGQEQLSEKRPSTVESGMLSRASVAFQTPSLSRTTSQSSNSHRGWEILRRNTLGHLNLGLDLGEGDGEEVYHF"}, "source": "paper PMC5951624", "about": "(Nature structural & molecular biology, 2018)", "target": "TRPV5 (transient receptor potential vanilloid 5) (Oryctolagus cuniculus, UniProt Q9XSM3)", "experiment": "cell-based"}
{"compound": "Clc1ccc(COC(Cn2ccnc2)c2ccc(Cl)cc2Cl)cc1", "note": "(stereo not shown) [ECN, econazole]", "values": [{"measurement": "IC50", "result": 2, "unit": "µM"}]}
